This test deals with GFP-DYNC1IC1 (UniProt O14576). Nature of the test: co-IP; HEK293T cells transfected with GFP or GFP-DYNC1IC1 for 48 h; lysate in IP buffer (50 mM Tris-HCl pH 7.4, 260 mM NaCl, 1% NP-40); precipitated with control IgG or anti-GFP antibody on Protein G magnetic beads at 4 °C; immunoblot.

Amino acid sequences for entries named in this document (tags omitted).
UniProt O14576: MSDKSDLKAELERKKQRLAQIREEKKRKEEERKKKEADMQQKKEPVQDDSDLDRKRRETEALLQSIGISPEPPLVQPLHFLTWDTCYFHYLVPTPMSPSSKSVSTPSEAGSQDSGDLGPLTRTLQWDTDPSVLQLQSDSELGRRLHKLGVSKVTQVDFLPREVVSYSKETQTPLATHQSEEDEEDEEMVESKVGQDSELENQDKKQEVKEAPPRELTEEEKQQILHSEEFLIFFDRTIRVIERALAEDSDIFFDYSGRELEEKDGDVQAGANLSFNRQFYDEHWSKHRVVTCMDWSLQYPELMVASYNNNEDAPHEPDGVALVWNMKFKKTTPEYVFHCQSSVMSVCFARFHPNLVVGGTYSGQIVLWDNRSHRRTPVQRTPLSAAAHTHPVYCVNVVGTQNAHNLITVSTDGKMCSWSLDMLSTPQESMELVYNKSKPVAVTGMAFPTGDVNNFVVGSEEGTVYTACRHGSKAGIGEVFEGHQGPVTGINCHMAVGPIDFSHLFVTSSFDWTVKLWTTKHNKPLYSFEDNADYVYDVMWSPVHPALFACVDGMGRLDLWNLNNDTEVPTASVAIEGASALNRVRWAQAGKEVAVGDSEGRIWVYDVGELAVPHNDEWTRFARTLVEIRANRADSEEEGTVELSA
UniProt Q15154: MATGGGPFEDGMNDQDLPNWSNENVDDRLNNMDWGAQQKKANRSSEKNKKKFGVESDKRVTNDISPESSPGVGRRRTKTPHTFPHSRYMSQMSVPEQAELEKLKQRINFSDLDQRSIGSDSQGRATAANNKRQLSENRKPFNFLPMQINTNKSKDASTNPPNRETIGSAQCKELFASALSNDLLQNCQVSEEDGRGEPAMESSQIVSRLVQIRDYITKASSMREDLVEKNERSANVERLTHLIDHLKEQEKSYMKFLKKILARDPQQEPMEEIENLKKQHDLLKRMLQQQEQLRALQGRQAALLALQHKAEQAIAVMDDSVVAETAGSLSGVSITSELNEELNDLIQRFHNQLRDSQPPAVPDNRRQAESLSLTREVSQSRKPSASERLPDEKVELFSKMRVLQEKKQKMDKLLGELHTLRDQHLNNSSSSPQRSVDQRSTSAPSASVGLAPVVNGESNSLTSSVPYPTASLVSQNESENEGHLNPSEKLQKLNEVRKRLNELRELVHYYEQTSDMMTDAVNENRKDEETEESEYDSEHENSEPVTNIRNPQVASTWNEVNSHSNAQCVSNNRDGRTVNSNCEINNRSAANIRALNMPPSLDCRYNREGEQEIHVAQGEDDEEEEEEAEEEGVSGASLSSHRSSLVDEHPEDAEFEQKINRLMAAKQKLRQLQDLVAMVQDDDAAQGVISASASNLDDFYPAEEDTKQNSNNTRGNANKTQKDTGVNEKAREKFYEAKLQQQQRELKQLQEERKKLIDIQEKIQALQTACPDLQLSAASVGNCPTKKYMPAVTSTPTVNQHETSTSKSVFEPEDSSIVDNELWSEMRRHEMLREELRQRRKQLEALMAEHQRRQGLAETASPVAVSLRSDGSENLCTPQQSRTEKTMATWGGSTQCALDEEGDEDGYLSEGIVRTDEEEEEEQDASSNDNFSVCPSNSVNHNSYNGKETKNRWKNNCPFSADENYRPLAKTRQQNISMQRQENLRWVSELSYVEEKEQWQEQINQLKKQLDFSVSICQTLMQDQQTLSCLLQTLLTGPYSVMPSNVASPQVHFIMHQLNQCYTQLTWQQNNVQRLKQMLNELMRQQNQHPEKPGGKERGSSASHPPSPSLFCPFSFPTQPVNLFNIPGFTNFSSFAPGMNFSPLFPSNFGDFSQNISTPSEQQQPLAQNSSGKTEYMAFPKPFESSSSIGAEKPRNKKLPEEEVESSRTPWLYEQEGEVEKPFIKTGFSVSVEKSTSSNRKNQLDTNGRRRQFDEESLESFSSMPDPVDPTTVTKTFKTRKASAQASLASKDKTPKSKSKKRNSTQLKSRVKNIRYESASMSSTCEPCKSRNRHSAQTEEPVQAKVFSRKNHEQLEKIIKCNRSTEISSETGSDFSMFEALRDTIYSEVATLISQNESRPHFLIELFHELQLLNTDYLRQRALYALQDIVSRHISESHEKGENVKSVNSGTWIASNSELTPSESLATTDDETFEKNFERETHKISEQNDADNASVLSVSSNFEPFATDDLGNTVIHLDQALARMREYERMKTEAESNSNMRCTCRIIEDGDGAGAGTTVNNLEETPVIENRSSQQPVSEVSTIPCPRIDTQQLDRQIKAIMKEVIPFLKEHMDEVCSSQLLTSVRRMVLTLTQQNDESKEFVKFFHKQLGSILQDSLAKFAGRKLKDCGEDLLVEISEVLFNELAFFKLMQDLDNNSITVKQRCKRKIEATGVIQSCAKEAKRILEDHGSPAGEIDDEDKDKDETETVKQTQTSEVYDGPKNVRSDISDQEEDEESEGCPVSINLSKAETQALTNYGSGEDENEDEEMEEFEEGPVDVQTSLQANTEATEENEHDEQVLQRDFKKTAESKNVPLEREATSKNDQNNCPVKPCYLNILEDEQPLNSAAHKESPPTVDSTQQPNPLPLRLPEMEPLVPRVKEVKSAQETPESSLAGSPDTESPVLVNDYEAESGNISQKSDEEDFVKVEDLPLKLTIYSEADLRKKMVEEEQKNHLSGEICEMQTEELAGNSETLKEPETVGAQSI

Results are given in words; binding and its absence hold for the method and conditions named. In cells and extracts the contact can be indirect. Some results given as binding are weak or reduced against the parent protein; the word gives no strength.

Regarding “Pericentriolar Material-1 (PCM1) (from UniProt Q15154 1-2024)”, the binding entry is listed as “binds”.

B1: BBS4 (protein, UniProt Q96RK4 1-519)
chain: MAEERVATRTQFPVSTESQKPRQKKAPEFPILEKQNWLIHLHYIRKDYEACKAVIKEQLQETQGLCEYAIYVQALIFRLEGNIQESLELFQTCAVLSPQSADNLKQVARSLFLLGKHKAAIEVYNEAAKLNQKDWEISHNLGVCYIYLKQFNKAQDQLHNALNLNRHDLTYIMLGKIHLLEGDLDKAIEVYKKAVEFSPENTELLTTLGLLYLQLGIYQKAFEHLGNALTYDPTNYKAILAAGSMMQTHGDFDVALTKYRVVACAVPESPPLWNNIGMCFFGKKKYVAAISCLKRANYLAPFDWKILYNLGLVHLTMQQYASAFHFLSAAINFQPKMGELYMLLAVALTNLEDIENAKRAYAEAVHLDKCNPLVNLNYAVLLYNQGEKKNALAQYQEMEKKVSLLKDNSSLEFDSEMVEMAQKLGAALQVGEALVWTKPVKDPKSKHQTTSTSKPASFQQPLGSNQALGQAMSSAAAYRTLPSGAGGTSQFTKPPSLPLEPEPAVESSPTETSEQIREK
Take B1: the binding entry is “binds”.

The values above are taken from publication PMC6776500.
